Data source: PubChem BioAssay AID1508588 (Peter MacCallum Cancer Centre, 2020)

Screen: 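Knock-downs boosting vemurafenib effects on melanoma cell growth or lactate release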 (primary screen)
System: human WM266.4 melanoma cells (BRAF V600 mutant)
Reagent: siRNA pool against human genes, 40 nM
Timing: 96 h from transfection to read-out
Conditions: vemurafenib 300 nM (about IC25), added 48 h after transfection, for 48 h; comparison arm got DMSO vehicle only
Read-out: 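Ratios to non-targeting siRNA for cell gain, counted as DAPI nuclei after minus before drug and averaged over two replicates, and for absorbance-read medium lactate per cell; both binned into fold-change classes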
Direction: cell gain with vemurafenib: higher = more cell gain than with non-targeting siRNA; lactate per cell with vemurafenib: higher = more lactate made per cell
Call rule: 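Enhancement is called by pairing each knock-down's vehicle-arm and drug-arm fold-change classes for viability or glycolysis; which class combinations qualify is not given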
Meaning of the calls: active = enhances vemurafenib effect; inactive = no enhancement seen
The deposit covers about 18,000 reagents; below is an unselected part. 790 of all reagents (4.4%) were called active. 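Calls rest on a combination of fold-change classes in drug and vehicle arms, not all shown here.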 A reagent listed more than once was tested more than once; the source does not tell the runs apart.

| gene knocked down | cell gain with vemurafenib | lactate per cell with vemurafenib | Call |
| --- | --- | --- | --- |
| ERMP1 (endoplasmic reticulum metallopeptidase 1) | 0.28 | 0.62 | inactive |
| CHTF8 (chromosome transmission fidelity factor 8) | 0.73 | 0.78 | inactive |
| ZNF321P (zinc finger protein 321, pseudogene) | 0.24 | 0.28 | active |
| SH3RF3 (SH3 domain containing ring finger 3) | 0.61 | 0.54 | inactive |
| PRB2 (proline rich protein BstNI subfamily 2) | 0.98 | 1 | inactive |
| KCNE5 | 0.36 | 0.94 | inactive |
| HDAC1 (histone deacetylase 1) | 0.76 | 1 | inactive |
| RNPS1 (RNA binding protein with serine rich domain 1) | 0.02 | 3.14 | inactive |
| ZMYND15 (zinc finger MYND-type containing 15) | 0.36 | 1.19 | inactive |
| SATL1 (spermidine/spermine N1-acetyl transferase like 1) | 0.55 | 0.95 | inactive |
| LCN6 (lipocalin 6) | 0.61 | 0.66 | inactive |
| SINHCAF (SIN3-HDAC complex associated factor) | 0.55 | 0.88 | inactive |
| GTF2H5 (general transcription factor IIH subunit 5) | 0.23 | 1.3 | inactive |
| USP44 (ubiquitin specific peptidase 44) | 0.54 | 1 | inactive |
| FCRL6 (Fc receptor like 6) | 0.38 | 1.4 | inactive |
| SLF2 (SMC5/6 complex localization factor 2) | 1.03 | 0.91 | inactive |
| CHCHD6 (coiled-coil-helix-coiled-coil-helix domain containing 6) | 1.12 | 0.74 | inactive |
| SLC22A16 | 0.14 | 1.89 | inactive |
| CUL5 (cullin 5) | 1.1 | 0.84 | inactive |
| CUL5 (cullin 5) | 1.06 | 0.7 | inactive |
| RMC1 (regulator of MON1-CCZ1) | 0.91 | 0.32 | inactive |
| TMEM147 (transmembrane protein 147) | 0.51 | 0.72 | inactive |
| FGF23 (fibroblast growth factor 23) | 0.01 | 1.67 | inactive |
| GAST (gastrin) | 0.65 | 0.66 | inactive |
| H2AB3 (H2A.B variant histone 3) | 0.52 | 1.31 | inactive |
| SRD5A2 (steroid 5 alpha-reductase 2) | 0.1 | 1.75 | inactive |
| ENTPD6 (ectonucleoside triphosphate diphosphohydrolase 6) | 0.34 | 0.72 | inactive |
| RAN (RAN, member RAS oncogene family) | -0.14 | 2.71 | inactive |
| CCNI (cyclin I) | 0.77 | 0.84 | inactive |
| EVI2A (ecotropic viral integration site 2A) | 0.97 | 0.86 | inactive |
| GNL3 (G protein nucleolar 3) | 0.35 | 0.9 | inactive |
| STX19 (syntaxin 19) | 0.35 | 1.37 | inactive |
| GREM1 (gremlin 1, DAN family BMP antagonist) | 0.7 | 0.72 | inactive |
| SYT4 (synaptotagmin 4) | 0.31 | 0.92 | inactive |
| KIF3C (kinesin family member 3C) | 0.35 | 1.08 | inactive |
| NUCB2 (nucleobindin 2) | 0.71 | 1.01 | inactive |
| RBSN (rabenosyn, RAB effector) | -0.08 | 2.04 | inactive |
| MFRP (membrane frizzled-related protein) | 0.79 | 1.12 | inactive |
| RAMP1 (receptor activity modifying protein 1) | 0.22 | 0.43 | active |
| STARD3NL (STARD3 N-terminal like) | 1.04 | 0.84 | inactive |
| IGSF22 (immunoglobulin superfamily member 22) | 1.09 | 0.7 | inactive |
| MOK (MOK protein kinase) | 0.34 | 1.76 | inactive |
| CCKAR (cholecystokinin A receptor) | 0.67 | 0.6 | inactive |
| YPEL4 (yippee like 4) | 0.66 | 0.94 | inactive |
| TP53BP2 (tumor protein p53 binding protein 2) | 0.29 | 0.22 | inactive |
| AFG3L2 (AFG3 like matrix AAA peptidase subunit 2) | 0.59 | 1.48 | inactive |
| SLC52A2 | 1.04 | 0.93 | inactive |
| BRCA2 (BRCA2 DNA repair associated) | 0.75 | 0.74 | inactive |
| ACE2 (angiotensin converting enzyme 2) | 0.51 | 1.06 | inactive |
| SLC17A8 | 0.81 | 0.5 | inactive |
| CDC50B (cell division cycle 50 P4-ATPase accessory subunit B) | 0.87 | 0.62 | inactive |
| SV2C (synaptic vesicle glycoprotein 2C) | 0.52 | 1.29 | inactive |
| KLHL20 (kelch like family member 20) | 0.28 | 2.16 | inactive |
| TEAD4 (TEA domain transcription factor 4) | 0.69 | 1.05 | inactive |
| CA13 (carbonic anhydrase 13) | 0.69 | 0.96 | inactive |
| CST8 (cystatin 8) | 1.21 | 0.88 | inactive |
| RYK (receptor like tyrosine kinase) | 0.92 | 1.02 | inactive |
| ECH1 (enoyl-CoA hydratase 1) | 0.48 | 0.96 | inactive |
| ATAT1 (alpha tubulin acetyltransferase 1) | 0.54 | 1.45 | inactive |
| PTAFR (platelet activating factor receptor) | 0.46 | 0.76 | inactive |
| PDCD1 (programmed cell death 1) | 0.37 | 1.35 | inactive |
| GPS2 (G protein pathway suppressor 2) | 1.06 | 1.12 | inactive |
| SERPINA5 (serpin family A member 5) | 0.35 | 0.54 | inactive |
| RCAN2 (regulator of calcineurin 2) | 0.69 | 0.96 | inactive |
| PRUNE2 (prune homolog 2 with BCH domain) | 0.11 | 0.63 | inactive |
| RPL5 (ribosomal protein L5) | -0.13 | 2.4 | inactive |
| KIF16B (kinesin family member 16B) | 0.44 | 1.06 | inactive |
| NEU3 (neuraminidase 3) | 0.51 | 0.76 | inactive |
| TBL1XR1 (TBL1X/Y related 1) | 0.82 | 0.7 | inactive |
| PIGX (phosphatidylinositol glycan anchor biosynthesis class X) | 0.21 | 1.42 | inactive |
| DLGAP1-AS1 (DLGAP1 antisense RNA 1) | 1.14 | 0.42 | inactive |
| ZNF382 (zinc finger protein 382) | 0.33 | 1.8 | inactive |
| ATP6V0A4 (ATPase H+ transporting V0 subunit a4) | 0.61 | 0.76 | inactive |
| NAA15 (N-alpha-acetyltransferase 15, NatA auxiliary subunit) | 0.5 | 0.84 | inactive |
| PRCP (prolylcarboxypeptidase) | 0.92 | 0.88 | inactive |
| LAMC2 (laminin subunit gamma 2) | 0.14 | 2.04 | inactive |
| ABI2 (abl interactor 2) | 0.56 | 1.35 | inactive |
| CFAP298 (cilia and flagella associated protein 298) | 0.48 | 0.42 | inactive |
| GPR6 (G protein-coupled receptor 6) | 0.62 | 0.87 | inactive |
| SCO2 (synthesis of cytochrome C oxidase 2) | 0.64 | 0.62 | inactive |
| TAAR2 (trace amine associated receptor 2) | 0.58 | 1.48 | inactive |
| AJM1 (apical junction component 1 homolog) | 0.35 | 1.2 | inactive |
| KIR2DL5B | 0.65 | 1.01 | inactive |
| PTPRN (protein tyrosine phosphatase receptor type N) | 0.19 | 1.08 | inactive |

Not a retest: an excerpt of the list.
| gene knocked down | cell gain with vemurafenib | lactate per cell with vemurafenib | Call |
| --- | --- | --- | --- |
| ATP6V0A4 (ATPase H+ transporting V0 subunit a4) | 0.61 | 0.76 | inactive |
| NAA15 (N-alpha-acetyltransferase 15, NatA auxiliary subunit) | 0.5 | 0.84 | inactive |
| PRCP (prolylcarboxypeptidase) | 0.92 | 0.88 | inactive |
| LAMC2 (laminin subunit gamma 2) | 0.14 | 2.04 | inactive |
| ABI2 (abl interactor 2) | 0.56 | 1.35 | inactive |
